Laboratory results: PubChem BioAssay AID686937 (Drosophila RNAi Screening Center, 2013)
The deposit covers about 23,000 reagents; below is a random part of those that have a named target and a result. 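Reduced-secretion tags in replicate 1 do not always agree with the z-scores; no criterion for assigning the tags was given.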 The numbers tell different reagents against one gene apart. A plus sign joins genes that one reagent is predicted to hit. Further read-outs or replicates are left out here. Not stated in the record: the amount of reagent.

Screen: 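Genes in the fly needed for secretion of protein constitutively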 (primary screen)
System: Drosophila S2 cells expressing secreted horseradish peroxidase
Reagent: long dsRNA against Drosophila genes
Time to read-out: about 5.5 days (5 days dsRNA, then 12 h reporter induction)
Conditions: reporter expression induced after 5 days of dsRNA, read 12 h later; inducer not stated
Read-out: 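Chemiluminescent measurement of peroxidase in the medium 12 h after reporter induction, following 5 days of dsRNA, given as a z-score per plate; higher means more secretion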
Direction: z-score: higher = more reporter secreted into medium

z-score, replicate 1, by gene and reagent
CG12520: #1 0.19
CG6813: #1 0.25
ND-B14.5A: #1 0.36
CG10301: #1 0.42
CG14710: #1 0.18
UGP + PGRP-LF: #1 0.6
CG5704: #1 0.27
Ubc84D: #1 0.18
CG2931: #1 0.29
CG12391: #1 0.46
NPFR: #1 0.17
CG12093: #1 0.1
LRR: #1 0.11
loco: #1 0.31; #2 0.23
TyrRS: #1 0.11
CG18666: #1 -0.12
CG11815: #1 0.55
Psf2: #1 0.27
elfless: #1 0.37
Mgat2: #1 0.4
CG18132: #1 0.06
Pgam5-2: #1 0.05
CG12522: #1 -0.04
pasi1: #1 0.36; #2 0.04
lqfR: #1 -0.4; #2 0.28
CG5646: #1 0.4
CG33252: #1 0.51
KFase: #1 0.25
Gnpnat: #1 0.27
jus: #1 -1.86; #2 0.41
CG32152: #1 -2.13
Rbm13: #1 -0.48
CG15597: #1 0.38
grn: #1 -3.56; #2 0.33
CG12857: #1 0.24
Nuf2: #1 -0.13
CheB93a: #1 0.24
CG30339: #1 0.69
Obp58c: #1 0.03
lncRNA:CR32657: #1 0.23
Nup153: #1 -4.57
RpL22: #1 -0.91; #2 -2.29
CG32074: #1 -0.88
Efr: #1 0.43
CG5953: #1 0.09; #2 -0.28
B-H2: #1 -2.74
CG31055: #1 0.3
CG7290: #1 0.3
Nsun5: #1 0.05
CG7156: #1 0.3
CG8008: #1 0.16
SmydA-8: #1 0.57; #2 0.3; #3 -0.86
CG33012: #1 0.41; #2 0.35
CG3942: #1 0.4
ref(2)P: #1 1.65
BubR1: #1 -0.44
E2f2: #1 0.23
c-cup: #1 0.18
OSCP1: #1 0.34
PDCD-5: #1 0.46
CG15554: #1 0.33
CG13694: #1 0.16
Orc4: #1 -11.1
Obp18a: #1 0.2
CycJ: #1 0.11
CG7099: #1 0.52
CG8664: #1 -0.04
CG32111 (retired record): #1 0.79
Mst84B: #1 0.2
CG42505 + CG42504 + CG31358: #1 0.25; #2 -0.04; #3 0.05

Entries above whose gene name starts with J or j:
z-score, replicate 1, by gene and reagent
jus: #1 -1.86; #2 0.41
